Laboratory results as given in patent publication US20050233991A1, “Methods and compositions for the identification, assessment, and therapy of small cell lung cancer” (priority 2002, published 2005).
For at least one compound, name, drawing or mass did not settle the structure.

Tested on: Akt and p70 S6 kinase
Experiment: Immunoblotting of Akt and p70 S6 kinase phosphorylation
Type: cell-based, human
Details: STI571 5 μM or LY294002 25 μM overnight, NCI-H69 cells
Procedure: Cells were lysed in lysis buffer (20 mM Tris pH 8.0, 150 mM NaCl, 10% glycerol, 1% NP-40, 0.42% NaF) containing protease inhibitors (1 mM PMSF, 1 mM Na3VO4, 5 μg/ml aprotinin, 5 μg/ml leupeptin). Cell lysates were separated by 7.5% SDS-PAGE under reducing conditions and transferred to nitrocellulose membranes (Schleicher & Schuell, Dassel, Germany). Proteins were detected by immunoblotting using an enhanced chemiluminescence technique (NEN Life Science Products, Mass.). Rabbit polyclonal antibodies against c-Kit (C-19; Santa Cruz Biotechnology, Inc., Santa Cruz, Calif.), Akt, Akt (pSer 473), Akt (pThr 308), p70 S6 kinase, and p70 S6 kinase (pThr 389) (Cell Signaling Technology, Inc., Beverly, Mass.) and monoclonal antibodies against […]-actin (AC-15; Sigma, St. Louis, Mo.) and phosphotyrosine (4G10, UBI, Lake Placid, N.Y.) were used.
The activity of the PI3-K downstream targets Akt and p70 S6 kinase is regulated through critical serine/threonine (Ser/The) residues (Franke, T. F. et al. (1997) Cell 88:435-7; Pullen, N. and Thomas, G. (1997) FEBS Lett 410:78-82). […] Cell lysates were applied to a 7.5% SDS-PAGE gel and transferred to nitrocellulose membrane. The membrane was probed with monoclonal antibodies against phosphotyrosine (4G10) and β-actin and polyclonal antibodies against Akt (pSer 473) and p70 S6 kinase (S6K) (pThr 389). […]

Question: For `O=c1cc(N2CCOCC2)oc2c(-c3ccccc3)cccc12` [LY294002], which “effect of pre-treatment on SCF induced phosphorylation of Akt and p70 S6 kinase” value (then 50 ng/ml SCF 15 minutes) is on record?
Answer: Its value is “blocked”.

Question: What about the “effect of pre-treatment on SDF-1α induced phosphorylation of Akt and p70 S6 kinase” value (then 50 ng/ml SDF-1α 15 minutes) of the same compound?
Answer: Its value is “blocked”.
